Results of single-concentration screens

Results are given as percent effect.
The record does not define 0% and 100%; most values in the screen are far below 50% and negative numbers occur (in some assays of this library far below -100).
Compounds were drawn at random from those tested, without regard to their results.

T. brucei: 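Whole-parasite assay of Trypanosoma brucei over 72 hours; the read-out is not stated. Tested at 30 µM. Higher reads as stronger inhibition (inferred: compounds with an IC50 in retests scored well above the rest). Values scatter widely below zero; nearly all retest evidence comes from the higher of the two concentrations used. Size under these conditions: about 64,000 compounds, about 940 of them at 50% or above in at least one test.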
Toxoplasma: 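Assay of Toxoplasma gondii numbers, read through their beta-galactosidase reporter with a colour substrate. Concentration: 10 µM. Higher reads as fewer parasites (inferred from which compounds were picked for retests). Size under these conditions: about 67,000 compounds, about 260 of them at 50% or above in at least one test.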

CN(C)C(C(=O)NCC(F)(F)F)c1cccc(F)c1 (stereo not drawn) gave T. brucei: -44.38%; Toxoplasma: -7.705%.
CC(C)c1cc(C(=O)N2CCCN(Cc3ccccc3)CC2)n[nH]1 gave T. brucei: 7.939%; Toxoplasma: -1.681%.
O=C(O)C(F)(F)F.[H][C@@]12CCN(c3cccnc3)C[C@]1([H])CN(C(=O)CC1CC1)C2 gave T. brucei: -29.22%; Toxoplasma: -23.27%.
OC[C@H]1CCCN1c1nccc(-c2c[nH]nc2C2CCCCC2)n1 gave T. brucei: 98.96%; Toxoplasma: 54.25%.
CCn1cnnc1CNC(=O)C1CCCN(Cc2cccc(F)c2)C1 (stereo not drawn) gave T. brucei: -28.58%; Toxoplasma: -2.412%.
Cc1cc(C(=O)N2CCC(n3nc(C)cc3C)C2)c2ccc(F)cc2n1 (stereo not drawn) gave T. brucei: -14.53%; Toxoplasma: 9.295%.
O=C(NCC1CCOC1)N1CCN(c2ncccn2)CC1 (stereo not drawn) gave T. brucei: 3.901%; Toxoplasma: 1.511%.
COCCOCC(=O)N1CCCC(c2ncc[nH]2)C1 (stereo not drawn) gave T. brucei: -15.07%; Toxoplasma: -15.37%.
CCCNC(=O)C(C)Oc1ccc(F)cc1 (stereo not drawn) gave T. brucei: -16.64%; Toxoplasma: 9.324%.
[H][C@@]12C[C@H](C(=O)Nc3cccnc3)[C@@]([H])(CN(Cc3ccc(C)cc3)C1)O2 gave T. brucei: -530.9%; Toxoplasma: -10.71%.
CN1CC2(CCCN(Cc3nnc(-c4cccc(F)c4)o3)C2)OC1=O (stereo not drawn) gave T. brucei: -17.52%; Toxoplasma: -6.509%.
Cn1c(-c2ccc(F)cc2)cn2cc(C(=O)N3CC[C@@H](O)C3)nc2c1=O gave T. brucei: -33.63%; Toxoplasma: -15.5%.
CCOCc1nn(CC2CC2)c2c1CN(Cc1ccco1)CC2.O=C(O)C(F)(F)F gave T. brucei: -22%; Toxoplasma: 8.086%.
CC(=O)NCC(=O)Nc1cc(C)n(-c2ccc(Cl)cc2Cl)n1 gave T. brucei: -8.211%; Toxoplasma: -9.993%.
Cc1cccc(CNc2cc(C3CCCNC3)ccn2)n1.Cl (stereo not drawn) gave T. brucei: 3.917%; Toxoplasma: -4.046%.
CCOCC1CC2(CCN(C(=O)c3cscn3)CC2)CO1 (stereo not drawn) gave T. brucei: 45.93%; Toxoplasma: 0.7729%.
Nc1cc(C(=O)NCC2CCN(CCc3ccccc3)C2)ccn1 (stereo not drawn) gave T. brucei: -117%; Toxoplasma: -0.03883%.
CC(NC(=O)NCC1(c2ccc(F)cc2)CCCC1)c1nncn1C (stereo not drawn) gave T. brucei: -19.94%; Toxoplasma: 7.094%.
CCS(=O)(=O)NC(CCSC)C(=O)Nc1cccc(C)c1C (stereo not drawn) gave T. brucei: -12.55%; Toxoplasma: 2.024%.
Cn1nc2c(cc1=O)CN(Cc1nc(-c3cccs3)no1)CC2 gave T. brucei: 7.283%; Toxoplasma: 16.32%.
Cc1nn(C)c(N2CCOCC2)c1CNC1CCCCNC1=O (stereo not drawn) gave T. brucei: 7.395%; Toxoplasma: -1.285%.
O=C(Cn1ccc(=O)[nH]c1=O)NCc1cccnc1OCC(F)(F)F gave T. brucei: -44.52%; Toxoplasma: -28.2%.
[H][C@@]12OCCN(C(=O)c3occc3C)[C@@]1([H])CC[C@H]2OCC1CCOCC1 gave T. brucei: 30.95%; Toxoplasma: -5.021%.
[H][C@]12CCN(C(=O)NC(C)C)CC[C@@]1([H])S(=O)(=O)N(Cc1ccccc1)C2 gave Toxoplasma: -0.05379%.
Cc1ccnc(NCCCN2CCc3ccccc32)n1 gave T. brucei: -21.48%; Toxoplasma: 11.78%.
[H][C@]12CCN(c3ncccn3)CC[C@@]1([H])S(=O)(=O)N(CCOC)C2 gave T. brucei: -6.388%; Toxoplasma: 6.897%.
Cn1cc(-c2cnc(-c3ccnn3C)nc2)cc1C(=O)NC1CC1 gave T. brucei: 41.82%; Toxoplasma: 4.216%.
CC(C)COC(C)C(=O)N1CCC(C)CC1 (stereo not drawn) gave T. brucei: -9.246%; Toxoplasma: 12.05%.
CCc1ncc2c(n1)CN(C(C)C(=O)Nc1ccc(Cl)cn1)CC2 (stereo not drawn) gave T. brucei: -26.77%; Toxoplasma: -14.27%.
O=C(O)C(F)(F)F.O=C(O)C(F)(F)F.O=C(O)C(F)(F)F.c1ccc(CN2CCc3c(COCC4CC4)cncc3C2)nc1 gave T. brucei: -75.06%; Toxoplasma: -23.41%.
COc1ncccc1CNC(=O)c1cnccn1 gave T. brucei: -2.107%; Toxoplasma: 9.077%.
O=C1NCC(C(=O)NCc2ccccc2CN2CCOCC2)N1 (stereo not drawn) gave T. brucei: 0.9783%; Toxoplasma: 3.557%.
CCN(Cc1ccc(O)c(C(=O)O)c1)CC1CCCO1 (stereo not drawn) gave T. brucei: -83.54%; Toxoplasma: -5.731%.

For reference, 3 entries once more:

{"compound": "CCCNC(=O)C(C)Oc1ccc(F)cc1", "stereo": "stereo not drawn", "T. brucei": -16.64, "Toxoplasma": 9.324}
{"compound": "CC(NC(=O)NCC1(c2ccc(F)cc2)CCCC1)c1nncn1C", "stereo": "stereo not drawn", "T. brucei": -19.94, "Toxoplasma": 7.094}
{"compound": "Cc1nn(C)c(N2CCOCC2)c1CNC1CCCCNC1=O", "stereo": "stereo not drawn", "T. brucei": 7.395, "Toxoplasma": -1.285}

From ChEMBL document CHEMBL3988442, “University of Dundee, Small-Polar-MMV Screening Library” (2021).